For one assay, the target named is GFP-Drp1 (human) (UniProt O00429). Briefly: co-IP; lysates of HEK-293T cells transfected with Myc-c-Abl and GFP-Drp1, with or without 1 mM H2O2 for 0.5 h; immunoprecipitated with anti-GFP antibody, immunoblot with anti-Myc antibody. (A western blot detects proteins with antibodies after separation by electrophoresis.)
Assay [1] has as its target Dynamin related protein 1 (Drp1) (endogenous, primary cortical neurons) (not stated (endogenous in primary cortical neurons)) (UniProt Q8K1M6). Briefly: co-IP; lysates of primary cortical neurons with or without 100 μM H2O2 for 0.5 h; immunoprecipitated with anti-Drp1 antibody, immunoblot with anti-c-Abl antibody; endogenous proteins.

The chains behind the UniProt entries cited, without tags or fusion partners.
UniProt O00429: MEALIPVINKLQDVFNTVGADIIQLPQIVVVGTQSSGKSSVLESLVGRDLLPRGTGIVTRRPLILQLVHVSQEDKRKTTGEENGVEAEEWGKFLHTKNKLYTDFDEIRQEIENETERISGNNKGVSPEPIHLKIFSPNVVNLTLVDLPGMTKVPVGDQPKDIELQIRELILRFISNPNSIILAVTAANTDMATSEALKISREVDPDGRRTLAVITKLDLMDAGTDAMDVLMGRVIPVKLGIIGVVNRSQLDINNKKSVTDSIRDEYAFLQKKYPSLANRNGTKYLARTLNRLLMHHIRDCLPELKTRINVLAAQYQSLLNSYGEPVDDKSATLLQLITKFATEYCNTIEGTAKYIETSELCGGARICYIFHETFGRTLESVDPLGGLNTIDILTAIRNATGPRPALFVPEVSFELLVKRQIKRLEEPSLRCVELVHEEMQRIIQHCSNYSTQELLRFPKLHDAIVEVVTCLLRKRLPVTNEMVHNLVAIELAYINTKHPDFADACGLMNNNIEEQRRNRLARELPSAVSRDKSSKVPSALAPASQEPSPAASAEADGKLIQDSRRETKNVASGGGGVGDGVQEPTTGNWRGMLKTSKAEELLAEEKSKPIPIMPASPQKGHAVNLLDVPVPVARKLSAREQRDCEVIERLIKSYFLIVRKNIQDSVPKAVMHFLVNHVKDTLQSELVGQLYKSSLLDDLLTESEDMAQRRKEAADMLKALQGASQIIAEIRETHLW
UniProt Q8K1M6: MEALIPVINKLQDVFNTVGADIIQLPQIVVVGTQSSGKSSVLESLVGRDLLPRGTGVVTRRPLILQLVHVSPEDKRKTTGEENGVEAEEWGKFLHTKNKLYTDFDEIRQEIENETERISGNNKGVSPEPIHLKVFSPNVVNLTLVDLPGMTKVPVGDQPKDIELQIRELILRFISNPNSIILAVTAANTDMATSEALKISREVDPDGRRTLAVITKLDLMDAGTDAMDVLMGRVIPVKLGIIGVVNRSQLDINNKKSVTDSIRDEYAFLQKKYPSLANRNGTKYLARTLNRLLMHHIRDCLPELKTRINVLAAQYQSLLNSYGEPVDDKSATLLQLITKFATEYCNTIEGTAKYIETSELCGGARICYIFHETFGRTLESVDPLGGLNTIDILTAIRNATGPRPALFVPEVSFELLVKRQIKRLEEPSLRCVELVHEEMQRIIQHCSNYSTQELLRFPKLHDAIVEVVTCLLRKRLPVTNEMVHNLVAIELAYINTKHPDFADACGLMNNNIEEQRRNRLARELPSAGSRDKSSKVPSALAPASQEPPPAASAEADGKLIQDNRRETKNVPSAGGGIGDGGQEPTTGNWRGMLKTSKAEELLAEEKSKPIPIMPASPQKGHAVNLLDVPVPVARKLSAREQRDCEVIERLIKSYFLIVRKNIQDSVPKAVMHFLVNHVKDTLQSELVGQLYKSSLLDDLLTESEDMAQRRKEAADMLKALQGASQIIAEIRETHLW
UniProt P00519: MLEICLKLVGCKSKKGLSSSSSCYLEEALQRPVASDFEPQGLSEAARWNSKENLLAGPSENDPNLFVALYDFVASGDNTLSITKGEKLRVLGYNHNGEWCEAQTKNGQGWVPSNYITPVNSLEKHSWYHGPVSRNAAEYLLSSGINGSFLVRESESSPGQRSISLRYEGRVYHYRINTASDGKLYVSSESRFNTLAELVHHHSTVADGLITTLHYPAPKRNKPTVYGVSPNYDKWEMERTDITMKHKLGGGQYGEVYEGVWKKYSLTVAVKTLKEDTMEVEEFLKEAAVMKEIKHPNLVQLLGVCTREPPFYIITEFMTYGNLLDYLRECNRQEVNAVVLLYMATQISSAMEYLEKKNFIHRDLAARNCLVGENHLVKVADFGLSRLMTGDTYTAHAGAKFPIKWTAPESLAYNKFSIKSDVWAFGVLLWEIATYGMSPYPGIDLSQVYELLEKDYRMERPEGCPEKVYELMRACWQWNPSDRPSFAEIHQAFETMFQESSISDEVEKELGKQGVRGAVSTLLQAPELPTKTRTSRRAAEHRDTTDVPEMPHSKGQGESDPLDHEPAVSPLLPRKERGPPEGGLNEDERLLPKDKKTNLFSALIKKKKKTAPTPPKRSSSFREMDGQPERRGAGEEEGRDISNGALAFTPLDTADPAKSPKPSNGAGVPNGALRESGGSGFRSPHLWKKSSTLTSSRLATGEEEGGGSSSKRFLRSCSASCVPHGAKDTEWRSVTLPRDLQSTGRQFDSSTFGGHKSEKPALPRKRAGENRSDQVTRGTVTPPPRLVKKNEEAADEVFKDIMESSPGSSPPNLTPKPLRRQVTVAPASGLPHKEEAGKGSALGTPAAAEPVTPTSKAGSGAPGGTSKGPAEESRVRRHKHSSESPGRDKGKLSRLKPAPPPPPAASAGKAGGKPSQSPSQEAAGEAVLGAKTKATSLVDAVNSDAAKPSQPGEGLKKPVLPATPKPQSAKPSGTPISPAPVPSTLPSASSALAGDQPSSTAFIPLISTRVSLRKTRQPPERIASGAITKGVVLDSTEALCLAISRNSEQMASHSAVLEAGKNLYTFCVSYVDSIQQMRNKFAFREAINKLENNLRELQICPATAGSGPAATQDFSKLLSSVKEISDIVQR
UniProt P00520: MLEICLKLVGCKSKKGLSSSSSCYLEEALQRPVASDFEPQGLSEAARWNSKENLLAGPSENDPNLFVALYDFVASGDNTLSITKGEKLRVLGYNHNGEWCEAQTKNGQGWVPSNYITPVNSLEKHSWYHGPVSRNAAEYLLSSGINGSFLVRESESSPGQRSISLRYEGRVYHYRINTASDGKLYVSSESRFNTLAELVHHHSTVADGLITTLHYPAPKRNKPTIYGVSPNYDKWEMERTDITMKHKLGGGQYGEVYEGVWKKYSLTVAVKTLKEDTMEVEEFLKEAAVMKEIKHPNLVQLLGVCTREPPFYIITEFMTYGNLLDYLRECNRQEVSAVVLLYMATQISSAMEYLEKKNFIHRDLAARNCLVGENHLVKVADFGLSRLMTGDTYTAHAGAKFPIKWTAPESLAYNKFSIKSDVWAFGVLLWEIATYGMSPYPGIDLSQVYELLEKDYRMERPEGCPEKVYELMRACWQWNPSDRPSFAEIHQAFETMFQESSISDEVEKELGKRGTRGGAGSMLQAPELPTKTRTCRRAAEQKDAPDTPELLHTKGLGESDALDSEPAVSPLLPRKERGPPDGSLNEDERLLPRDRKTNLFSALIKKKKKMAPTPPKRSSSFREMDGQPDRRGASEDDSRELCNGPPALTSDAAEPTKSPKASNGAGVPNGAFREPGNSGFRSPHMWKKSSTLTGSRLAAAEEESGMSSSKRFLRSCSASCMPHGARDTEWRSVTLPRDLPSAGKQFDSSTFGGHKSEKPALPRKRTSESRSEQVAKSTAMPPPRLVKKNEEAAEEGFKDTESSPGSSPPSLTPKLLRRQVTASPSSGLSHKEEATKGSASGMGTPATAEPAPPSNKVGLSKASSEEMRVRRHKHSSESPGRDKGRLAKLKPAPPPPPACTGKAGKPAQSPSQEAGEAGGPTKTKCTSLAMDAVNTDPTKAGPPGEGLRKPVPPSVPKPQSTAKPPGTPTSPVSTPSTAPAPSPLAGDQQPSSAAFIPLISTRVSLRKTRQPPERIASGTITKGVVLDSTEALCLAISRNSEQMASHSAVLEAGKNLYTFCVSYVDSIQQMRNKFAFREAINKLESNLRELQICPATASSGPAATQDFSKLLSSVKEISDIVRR

These are yes or no findings as the source states them, for the method shown. Binding seen in cells or lysates may run through a third protein. Some results given as binding are weak or reduced against the parent protein; the word gives no strength.

With “Myc-c-Abl (from UniProt P00519 1-1130) (enzyme)”, in the assay with GFP-Drp1 (human), the binding entry is reported as “binds”.

As to “c-Abl (endogenous, primary cortical neurons) (from UniProt P00520 1-1123) (enzyme)”, the binding result in assay [1] is reported as “binds”.
